The record followed here is publication PMC8357632.

Results are given in words; binding and its absence hold for the method and conditions named. For some assays here: In cells and extracts the contact can be indirect. Some results given as binding are weak or reduced against the parent protein; the word gives no strength.

Test [1] addresses T1, Prp9 (S. cerevisiae (endogenous in yeast whole-cell extract)) (UniProt P19736).
T1 sequence: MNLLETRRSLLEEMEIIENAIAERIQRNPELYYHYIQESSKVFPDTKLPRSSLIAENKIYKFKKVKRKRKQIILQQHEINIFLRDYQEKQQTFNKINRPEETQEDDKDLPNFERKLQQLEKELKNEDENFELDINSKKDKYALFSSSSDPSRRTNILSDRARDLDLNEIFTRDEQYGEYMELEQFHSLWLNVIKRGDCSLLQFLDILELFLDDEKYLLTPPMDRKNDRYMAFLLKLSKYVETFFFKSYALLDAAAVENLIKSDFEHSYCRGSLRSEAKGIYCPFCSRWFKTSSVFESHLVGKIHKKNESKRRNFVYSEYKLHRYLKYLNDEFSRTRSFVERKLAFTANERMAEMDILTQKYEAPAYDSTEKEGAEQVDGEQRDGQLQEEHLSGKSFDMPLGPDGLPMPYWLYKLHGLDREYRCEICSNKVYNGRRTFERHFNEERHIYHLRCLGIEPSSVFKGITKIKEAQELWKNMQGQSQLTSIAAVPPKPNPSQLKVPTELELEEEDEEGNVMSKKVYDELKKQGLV
The experiment in a line: cryo-EM structure; ΔBS-A pre-A complex assembled in yeast extract on MS2-tagged ΔBS-A Act pre-mRNA, amylose affinity purified, BS3 and glutaraldehyde gradient fixed; 5.9 Å overall, U1 4.1 Å, U2 5'-region 8.3 Å, U2 3'-region 9.5 Å; U2 components docked as rigid bodies.

Test [2] has as its target T2, Prp11 (S. cerevisiae (endogenous in yeast whole-cell extract)) (UniProt Q07350).
T2 sequence: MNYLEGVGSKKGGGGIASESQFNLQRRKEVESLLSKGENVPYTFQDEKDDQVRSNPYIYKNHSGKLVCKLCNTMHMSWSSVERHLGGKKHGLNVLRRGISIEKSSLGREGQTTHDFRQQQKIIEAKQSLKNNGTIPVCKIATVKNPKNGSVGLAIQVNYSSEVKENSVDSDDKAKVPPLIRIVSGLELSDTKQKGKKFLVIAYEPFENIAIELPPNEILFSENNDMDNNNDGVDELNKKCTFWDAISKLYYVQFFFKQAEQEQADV
The test is described as above.

Test [3] deals with T3, Rse1 (S. cerevisiae (endogenous in yeast whole-cell extract)) (UniProt Q04693).
T3 sequence: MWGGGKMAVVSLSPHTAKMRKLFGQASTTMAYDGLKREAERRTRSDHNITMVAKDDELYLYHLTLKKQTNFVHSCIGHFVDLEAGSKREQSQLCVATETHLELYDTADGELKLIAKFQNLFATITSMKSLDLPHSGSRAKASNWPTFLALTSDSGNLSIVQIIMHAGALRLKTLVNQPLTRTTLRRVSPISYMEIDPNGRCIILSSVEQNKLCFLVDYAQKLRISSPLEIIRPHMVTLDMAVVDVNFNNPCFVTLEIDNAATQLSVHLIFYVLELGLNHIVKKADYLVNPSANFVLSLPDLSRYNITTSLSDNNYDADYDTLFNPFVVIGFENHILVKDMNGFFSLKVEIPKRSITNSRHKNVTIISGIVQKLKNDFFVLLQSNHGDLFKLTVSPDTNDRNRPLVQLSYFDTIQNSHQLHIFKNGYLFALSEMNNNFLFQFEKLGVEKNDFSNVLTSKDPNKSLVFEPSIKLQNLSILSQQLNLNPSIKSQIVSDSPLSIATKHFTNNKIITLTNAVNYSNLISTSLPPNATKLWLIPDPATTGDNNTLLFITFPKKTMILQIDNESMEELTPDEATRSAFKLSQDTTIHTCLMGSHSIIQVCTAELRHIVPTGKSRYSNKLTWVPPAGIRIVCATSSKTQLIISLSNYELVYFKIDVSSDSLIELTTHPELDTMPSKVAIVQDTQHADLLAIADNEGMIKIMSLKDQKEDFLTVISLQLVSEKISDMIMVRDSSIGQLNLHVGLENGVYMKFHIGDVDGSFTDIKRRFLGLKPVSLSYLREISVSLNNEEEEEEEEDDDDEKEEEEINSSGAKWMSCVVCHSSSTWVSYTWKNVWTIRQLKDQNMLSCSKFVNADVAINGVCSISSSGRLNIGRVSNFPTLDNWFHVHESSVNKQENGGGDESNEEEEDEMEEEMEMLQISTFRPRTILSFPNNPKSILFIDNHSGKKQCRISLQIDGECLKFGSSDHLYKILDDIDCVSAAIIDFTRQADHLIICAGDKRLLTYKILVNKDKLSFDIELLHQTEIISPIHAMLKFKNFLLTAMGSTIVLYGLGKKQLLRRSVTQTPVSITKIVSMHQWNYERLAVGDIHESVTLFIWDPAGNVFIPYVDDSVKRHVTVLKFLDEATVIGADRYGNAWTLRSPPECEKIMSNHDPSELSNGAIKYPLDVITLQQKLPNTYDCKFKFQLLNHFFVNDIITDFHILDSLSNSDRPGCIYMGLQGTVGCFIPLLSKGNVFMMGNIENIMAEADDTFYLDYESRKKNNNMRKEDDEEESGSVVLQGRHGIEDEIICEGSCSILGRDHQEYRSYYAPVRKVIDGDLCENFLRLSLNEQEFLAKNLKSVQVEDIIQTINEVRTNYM
Put plainly: cross-linking; CXMS: MS2 affinity-purified ΔBS-A pre-A complexes cross-linked with 250 μM BS3 for 1 h at 8 °C, glycerol gradient, tryptic digest, mass spectrometry, pLink 2.3.9, FDR 1% or 5%.

In test [4] the target is T4, Prp40 (S. cerevisiae (endogenous in yeast whole-cell extract)) (UniProt P33203).
T4 sequence: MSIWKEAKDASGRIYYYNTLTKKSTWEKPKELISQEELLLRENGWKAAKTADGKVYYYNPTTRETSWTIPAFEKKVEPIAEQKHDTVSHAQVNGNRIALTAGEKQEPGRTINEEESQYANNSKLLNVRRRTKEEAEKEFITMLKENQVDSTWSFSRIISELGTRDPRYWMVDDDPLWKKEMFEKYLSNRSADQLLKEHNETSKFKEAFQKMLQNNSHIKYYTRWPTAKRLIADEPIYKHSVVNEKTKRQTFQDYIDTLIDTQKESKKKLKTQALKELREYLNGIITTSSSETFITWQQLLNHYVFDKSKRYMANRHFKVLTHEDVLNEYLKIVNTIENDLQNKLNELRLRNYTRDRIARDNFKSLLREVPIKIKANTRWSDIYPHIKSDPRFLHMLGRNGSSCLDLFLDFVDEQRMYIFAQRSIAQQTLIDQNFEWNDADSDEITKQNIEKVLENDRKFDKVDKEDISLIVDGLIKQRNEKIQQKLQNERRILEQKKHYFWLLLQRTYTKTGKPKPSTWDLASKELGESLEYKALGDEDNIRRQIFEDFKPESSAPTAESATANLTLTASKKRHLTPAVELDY
Described as above.

B1: Hsh49 (protein, UniProt Q99181 1-213)
chain: MNYSADSGNTVYVGNIDPRITKEQLYELFIQINPVLRIKYPKDKVLQAYQGYAFIEFYNQGDAQYAIKIMNNTVRLYDRLIKVRQVTNSTGTTNLPSNISKDMILPIAKLFIKNLADSIDSDQLVKIFNKFGKLIREPEIFYLSNGKLKCAYVYFEDFEKADLAIKSLNNQLVANNRITVDYAFKENGKGNAKYGDDVDRLLNKEALKHNMLK
Take B1: the binding result in test [1] and in test [2] was “binds” each time.

B2: Snu71 (protein, UniProt P53207 1-620)
chain: MRDIVFVSPQLYLSSQEGWKSDSAKSGFIPILKNDLQRFQDSLKHIVDARNSLSETLLNSNDDGSIHNSDQNTGLNKDKEASIADNNSANKCATSSSRYQELKQFLPISLDQQIHTVSLQGVSSSFSRGQIESLLDHCLNLALTETQSNSALKVEAWSSFSSFLDTQDIFIRFSKVDEDEAFVNTLNYCKALFAFIRKLHEDFKIELHLDLNTKEYVEDRTGTIPSVKPEKASEFYSVFKNIEDQTDERNSKKEQLDDSSTQYKVDTNTLSDLPSDALDQLCKDIIEFRTKVVSIEKEKKMKSTYEESRRQRHQMQKVFDQIRKNHSGAKGSANTEEEDTNMEDEDEEDDTEDDLALEKRKEERDLEESNRRYEDMLHQLHSNTEPKIKSIRADIMSAENYEEHLEKNRSLYLKELLHLANDVHYDHHRSFKEQEERRDEEDRAKNGNAKELAPIQLSDGKAISAGKAAAITLPEGTVKSENYNADKNVSESSEHVKIKFDFKKAIDHSVESSSEDEGYRESELPPTKPSERSAAEDRLPFTADELNIRLTNLKESRYVDELVREFLGVYEDELVEYILENIRVNQSKQALLNELRETFDEDGETIADRLWSRKEFRLGT
On to B2, for which the binding entry in test [3] and in test [4] was “binds” throughout.

B3: Msl5–Mud2 (complex, UniProt Q12186 1-476; P36084 1-527)
chain 1: MSFRRINSRYFENRKGSSMEEKKAKVPPNVNLSLWRKNTVESDVHRFNSLPSKISGALTREQIYSYQVMFRIQEITIKLRTNDFVPPSRKNRSPSPPPVYDAQGKRTNTREQRYRKKLEDERIKLVEIALKTIPYFVPPDDYKRPTKFQDKYYIPVDQYPDVNFVGLLLGPRGRTLRKLQEDSNCKIAIRGRGSVKEGKNASDLPPGAMNFEDPLHCLIIADSEDKIQKGIKVCQNIVIKAVTSPEGQNDLKRGQLRELAELNGTLREDNRPCPICGLKDHKRYDCPNRKIPNIQGIVCKICGQTGHFSRDCNSSSQRMSRFDRNATVNNSAPIQSNDVHYNSNTHPIQAPKRSRYDNNSTEPPLKFPASSRYAPSPSPPASHISRQAQNVTPTPPPGLTSSSFSSGVPGIAPPPLQSPPESEQPKFSLPPPPGMTTVQSSIAPPPGLSGPPGFSNNMGNDINKPTPPGLQGPPGL
chain 2: MADEKRLEDLRSKIMESIGKSEKDVVPIENKRFNTDNAVIDTHFKRQKSDGELPKAPKSRNVSHSNNRGPSSIITMSTNRTTYEQTRAGPHRQSYRDASGRSYNRENRYSSHNTGPQWNNNPYNRQRDERRGRNERFDRRGRNGNGNYDRFNYQRKNEGSKFNGDRDKRQLQTNKYDMNYNSQNVMYPGSSFDSPAYYNMASSKANSRLVISGLSQSSDPSIVARLKDLLENFISGLQKTESNAEDFKISNFYIGEGRPDHIIVEFSSQICSTMVLACRSFFNAKLGTFDLKWRRPNDYVQQLDHLVDFCRGTVIALENLENIGEGEDYRMKELFSSLNVTNGTAKPLFYKCSSNTNNTGKESEFTKCILLSFEVVTQDILDKLKPYKWFKPNDGKISQVTSWITFQSLPNLVTQSVRVESRVLLLLNCLDPLDLKDETFITEIKETLKYSIAGADTIKICQPGVDYRLNFENLASGAGNIYIKFKTLEAAKHAMEELPGTQFNDRTVLCTYIDEDDFDMMEATQLS
As for B3, the binding result in test [4] is reported as “binds”.
